Experimental findings from patent publication US20260217983A1, “SULFONIUM SALT PHOTOINITIATORS AND METHODS OF LED CURING A COMPOSITION WITH SAID SULFONIUM SALT PHOTOINITIATORS” (ARKEMA FRANCE, priority 2022, published 2026) are described below.

This series can be described thus: Cure and colour measurements of coatings in the presence of anti-yellowing additives. As to conditions: 50 μm coating, LED 395 nm; for Curing assessment: 5 W/cm2, 10 passes; for L* / a* / b*: 10 passes, colour immediately after cure.
The mark [1] stands for this setting: additive 0.1% wt in control hybrid formulation.
The mark [2] stands for this setting: additive 0.5% wt in control hybrid formulation.
Where [3] appears, read: additive 1.0% wt in control hybrid formulation.

Take `O=C(O)CSc1ccccc1` [(Phenylthio)acetic acid]: under setting [1], the Curing assessment result is reported as “Fully cured”, the “L*” value came to 83.76, the “a*” value stood at 7.49 and the “b*” value is 13.93. Under setting [2], the Curing assessment entry is on record as “Fully cured”, the “L*” value was determined as 88.46, the “a*” value is on record as 1.78 and the “b*” value is on record as 12.28.
On to `Cc1cc(C(C)(C)C)c(O)c(C(C)(C)C)c1` [BHT], for which, under setting [1], the Curing assessment entry is given as “Fully cured”, the “L*” value was found to be 78.13, the “a*” value worked out at 12.39 and the “b*” value was found to be 15.91. Also, under setting [2], the Curing assessment result is recorded as “Fully cured”, the “L*” value stood at 80.98, the “a*” value was determined as 8.86 and the “b*” value is 13.03. In addition, under setting [3], the Curing assessment result is on record as “Fully cured”, the “L*” value was determined as 82.48, the “a*” value worked out at 6.77 and the “b*” value was found to be 12.00.
As to `CCOC(=O)c1ccc(N(C)C)cc1` [Speedcure EDB], under setting [1], the Curing assessment result is recorded as “Fully cured”, the “L*” value was determined as 78.65, the “a*” value amounted to 10.84 and the “b*” value is on record as 16.55.
The like results for `CC1(C)CCCC(C)(C)N1[O]` [TEMPO] were, in that order, “Partly cured”, 80.39, 14.05 and 17.28.
